According to the supplement of paper PMC4635364:
Counter-ions that a name gives are not always drawn. Some of the results follow. This data set is noisy: repeats of one test often differ as much as different tests do.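 Cells: ReNCell VM human fetal ventral-midbrain neural progenitors, differentiated mitogen-free. Blinded raters compared doublecortin-stained (early neurons) or tyrosine hydroxylase-stained (dopaminergic neurons) images with untreated wells, where 0 means no change. After repeats and both raters were averaged, compounds scoring 2 or above became hits for retesting.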

These compounds were tested on ReNCell VM (assay: neuronal differentiation score (DCX+ cell fraction vs untreated, manual image score) (score (-3 to 3)); higher = more neuronal differentiation). Conditions: library: LOPAC; 2 uM; 2 weeks.

Neuronal differentiation score, active:
O=Nc1ccc2oc(=O)ccc2c1 [6-Nitroso-1,2-benzopyrone] 2

Neuronal differentiation score, inactive:
CN[C@H](CC(=O)O)C(=O)O [N-Methyl-D-aspartic acid] 0
O=C(CCc1ccc(O)cc1)c1c(O)cc(O)cc1O [Phloretin] 0
NCCC[C@](N)(C(=O)O)C(F)F (racemic) [DL-alpha-Difluoromethylornithine hydrochloride] 0

Same assay, conditions: library: Natural; 2 uM; 2 weeks

Neuronal differentiation score, inactive:
COc1c(CO)cc(CO)cc(CO)c1=O [3,5,7-tris-hydroxymethyl-2-methoxy-cyclohepta-2,4,6-trienone] 0
O=C(O)/C=C/c1ccc(O)c(O)c1 [caffeic acid] 1
COc1cc(=O)n(C)c2c(OCC3OC(C)(C)OC3(C)C)cccc12 (centres undefined) [foliosidine acetonide] 0

Same assay, conditions: library: Prestwick; 2 uM; 2 weeks

Neuronal differentiation score, inactive:
NCc1ccccc1CC(=O)N[C@@H]1C(=O)N2C(C(=O)O)=C(CSc3nnnn3CC(=O)O)CS[C@H]12 [Ceforanide] 0
CC(C(=O)O)c1ccc(N2Cc3ccccc3C2=O)cc1 (centres undefined) [Indoprofen] 0
Cc1cc2c(s1)Nc1ccccc1N=C2N1CCN(C)CC1 [Olanzapine] 0
CC[C@@]1(O)C(=O)OCc2c1cc1n(c2=O)Cc2cc3c(CN(C)C)c(O)ccc3nc2-1 [Topotecan] 0
CC1=C(C(=O)O)N2C(=O)[C@@H](NC(=O)[C@H](N)c3ccc(O)cc3)[C@H]2SC1 [Cefadroxil] 0
CN1CCC(=C2c3ccccc3CCc3sccc32)CC1 [Pizotifen malate] 0
CC(=O)OC[C@H]1O[C@@H]([S-])[C@H](OC(C)=O)[C@@H](OC(C)=O)[C@@H]1OC(C)=O.CCP(CC)CC.[Au+] [Auranofin] 0
C[C@H](CCC(=O)O)[C@H]1CC[C@H]2[C@@H]3CC[C@@H]4C[C@H](O)CC[C@]4(C)[C@H]3CC[C@]12C [Lithocholic acid] 0

Two records drawn at random from the list so far:
Neuronal differentiation score, inactive:
CC(=O)OC[C@H]1O[C@@H]([S-])[C@H](OC(C)=O)[C@@H](OC(C)=O)[C@@H]1OC(C)=O.CCP(CC)CC.[Au+] [Auranofin] 0
CC1=C(C(=O)O)N2C(=O)[C@@H](NC(=O)[C@H](N)c3ccc(O)cc3)[C@H]2SC1 [Cefadroxil] 0

Same assay, conditions: library: Spectrum; 2 uM; 2 weeks

Neuronal differentiation score, inactive:
CO[C@@]1(NC(=O)C2SC(=C(C(N)=O)C(=O)O)S2)C(=O)N2C(C(=O)O)=C(CSc3nnnn3C)CS[C@@H]21 (some centres undefined) 0
CC(C)Cc1ccc([C@H](C)C(=O)O)cc1 0
N[C@@H](CC(=O)N1CCn2c(nnc2C(F)(F)F)C1)Cc1cc(F)c(F)cc1F 0
OC[C@H]1O[C@@H](OCCc2ccc(O)cc2)[C@H](O)[C@@H](O)[C@@H]1O 0
CNC(=C[N+](=O)[O-])NCCSCc1ccc(CN(C)C)o1 -1
CCOC(=O)COc1ccc2c(=O)cc(-c3ccccc3)oc2c1 0
CCOc1ccc(NC(C)=O)cc1 0
N=C(N)c1ccc(N=NNc2ccc(C(=N)N)cc2)cc1 0
O=c1[nH]cnc2c1ncn2[C@@H]1O[C@H](CO)[C@@H](O)[C@H]1O 0
OC[C@H]1O[C@H](OCC2O[C@@H](O)[C@H](O)[C@@H](O)[C@@H]2O)[C@H](O)[C@@H](O)[C@H]1O (some centres undefined) 0
CCCCCOC(=O)Nc1nc(=O)n([C@@H]2O[C@H](C)[C@@H](O)[C@H]2O)cc1F 0
CC(=O)OC(C)C[N+](C)(C)C (centres undefined) 0
CC1(C)S[C@@H]2[C@H](N3C(=O)[C@@H](c4ccccc4)NC3(C)C)C(=O)N2[C@H]1C(=O)O 0
Nc1ccc2cc3ccc(N)cc3nc2c1 0
CC(=O)CC(c1ccccc1)c1c(O)c2ccccc2oc1=O (centres undefined) 0
CCn1cc(C(=O)O)c(=O)c2cc(F)c(N3CCNCC3)nc21 0
CN(C)CCCN1c2ccccc2CCc2ccccc21 -1
C[N+]1(C)CCC(OC(=O)C(O)(c2ccccc2)C2CCCC2)C1 (centres undefined) 0
O=C(O)c1cc(=O)c(O)c2c(O)c(O)c(O)cc2c1 0
NS(=O)(=O)c1cc2c(cc1C(F)(F)F)NC(Cc1ccccc1)NS2(=O)=O (centres undefined) 0

Neuronal differentiation score, active:
Cc1ccnc(NS(=O)(=O)c2ccc(N)cc2)n1 2

Same assay, conditions: library: Tocriscreen; 2 uM; 2 weeks

Neuronal differentiation score, inactive:
COC1CCC(C(=O)c2ccc3nc4c(cc3c2)CCCO4)CC1 (centres undefined) 0
CC1(C)CCC(C)(C)c2cc(C3(c4ccc(C(=O)O)cc4)OCCO3)ccc21 0
O=C(/C=C/c1ccc(O)c(O)c1)O[C@H](Cc1ccc(O)c(O)c1)C(=O)O [Rosmarinic acid] 0
CCOC(=O)[C@H](CCc1ccccc1)N[C@@H](C)C(=O)N1Cc2cc(OC)c(OC)cc2C[C@H]1C(=O)O [Moexipril hydrochloride] 0

What follows are compounds tested on ReNCell VM (assay: dopaminergic neuron differentiation score (TH+ cell fraction vs untreated, manual image score) (score (0 to 3)); higher = more TH+ dopaminergic neuron differentiation). Conditions: library: LOPAC; 2 uM; 4 weeks; BDNF 10 ng/ml + GDNF 10 ng/ml.

Dopaminergic neuron differentiation score, inactive:
CN[C@H](CC(=O)O)C(=O)O [N-Methyl-D-aspartic acid] 0
O=Nc1ccc2oc(=O)ccc2c1 [6-Nitroso-1,2-benzopyrone] 0
O=C(CCc1ccc(O)cc1)c1c(O)cc(O)cc1O [Phloretin] 0
NCCC[C@](N)(C(=O)O)C(F)F (racemic) [DL-alpha-Difluoromethylornithine hydrochloride] 0
